Our source for the binding values is article PMC9481271.

Sequences of proteins named here, by UniProt entry; tags and fusion partners are left off.
UniProt P46527: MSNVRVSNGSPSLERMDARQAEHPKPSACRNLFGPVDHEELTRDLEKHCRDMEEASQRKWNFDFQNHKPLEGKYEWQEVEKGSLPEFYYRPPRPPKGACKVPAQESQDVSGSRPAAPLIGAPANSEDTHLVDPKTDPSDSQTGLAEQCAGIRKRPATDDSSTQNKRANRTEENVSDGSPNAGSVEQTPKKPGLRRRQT

In this assay the target is T1, semaphorin 3F (UniProt Q13275).
T1 sequence: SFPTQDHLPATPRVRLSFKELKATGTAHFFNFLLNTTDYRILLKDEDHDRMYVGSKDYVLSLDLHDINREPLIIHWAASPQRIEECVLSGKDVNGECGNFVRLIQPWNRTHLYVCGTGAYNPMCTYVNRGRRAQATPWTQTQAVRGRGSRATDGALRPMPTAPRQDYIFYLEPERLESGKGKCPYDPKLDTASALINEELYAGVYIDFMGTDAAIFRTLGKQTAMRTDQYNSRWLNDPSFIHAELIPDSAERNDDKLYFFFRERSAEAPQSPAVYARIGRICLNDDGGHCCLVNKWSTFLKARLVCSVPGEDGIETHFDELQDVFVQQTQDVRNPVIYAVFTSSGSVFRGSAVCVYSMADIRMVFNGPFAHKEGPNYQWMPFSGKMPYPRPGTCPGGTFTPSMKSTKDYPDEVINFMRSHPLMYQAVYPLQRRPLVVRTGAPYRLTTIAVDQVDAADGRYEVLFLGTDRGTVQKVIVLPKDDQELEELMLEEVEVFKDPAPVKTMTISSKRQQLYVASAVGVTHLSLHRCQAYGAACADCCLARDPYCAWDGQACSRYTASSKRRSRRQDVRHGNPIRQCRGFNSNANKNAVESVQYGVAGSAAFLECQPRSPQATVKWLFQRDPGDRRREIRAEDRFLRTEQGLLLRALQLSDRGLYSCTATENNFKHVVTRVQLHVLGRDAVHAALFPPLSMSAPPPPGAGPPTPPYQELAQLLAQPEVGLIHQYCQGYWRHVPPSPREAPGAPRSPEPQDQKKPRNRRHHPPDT
Briefly: co-IP; total protein lysates (500 ug) of LoVo cells with SEMA3F OE; IP with anti-SEMA3F antibody and protein A agarose beads at 4°C, 4 washes with cold PBS; rabbit serum as control; Western blot for SEMA3F and P27. For orientation: In western blotting, separated proteins are transferred to a membrane and probed.

No constants are given. Whether binding was seen depends on the method and setting. In cells and extracts the contact can be indirect. Some results given as binding are weak or reduced against the parent protein; the word gives no strength.

Turning to p27 (from UniProt P46527 1-198), the binding result is on record as “binds”.
